# According to PubChem BioAssay AID330 (DTP/NCI, 2004):
# The list is a part of this screen's results and no random one: it gathers tests that were run many times, whatever their T/C, doses with no T/C, and many T/C values between a quarter and a half above the control. Other doses and runs of a compound stand elsewhere. T/C gives the treated animals as a percentage of the vehicle group. Some doses have a count of surviving animals in place of a T/C: the source files T/C as zero there, which appears to mark a toxic dose or a test without result, not a measured value. Some survivor counts are full or nearly so, which does not show that the dose was tolerated: the source hardly ever lists a survival T/C far under the control, and the zero likely stands for such cases as well. Survivors were counted at the toxicity check, usually on the fifth day, unless a day is given; later deaths do not show. Schedules are NCI's codes, taken here to give the interval after Q, in days (D) or hours (H), and the number of doses after X. Some entries were tested several times; their values stand side by side, smallest first. For survival time, this PubChem deposit counts one and a half times the control or more as active, and values a quarter to a half above the control carry no call in these data; other NCI protocols may use other cut-offs. Some T/C values carry the count of animals alive at the toxicity check (mostly the fifth day); where none is given, no animal had died by that day.
# System: P388 leukemia ip, CD2F1 mice, survival T/C
# Experiment: NCI In Vivo Anticancer Drug Screen. Data for tumor model P388 Leukemia (intraperitoneal) in CD2F1 (CDF1) mice
# Conditions: T/C endpoint: median survival time, higher T/C = longer survival
# [1] = dose: 200.0 mg/kg/injection, schedule: Q04DX002 (ip), vehicle: Klucel (hydroxypropylcellulose) (HPC)
# [2] = dose: 25.0 mg/kg/injection, schedule: Q01DX009 (ip), vehicle: saline with Tween-80
# [3] = dose: 240.0 mg/kg/injection, schedule: Q01DX005 (ip), vehicle: saline with Tween-80
# [4] = dose: 50.0 mg/kg/injection, schedule: Q01DX009 (ip), vehicle: Klucel (hydroxypropylcellulose) (HPC)
# [5] = dose: 100.0 mg/kg/injection, schedule: Q01DX009 (ip), vehicle: Klucel (hydroxypropylcellulose) (HPC)
# [6] = dose: 200.0 mg/kg/injection, schedule: Q04DX003 (ip), vehicle: saline with Tween-80
# [7] = dose: 200.0 mg/kg/injection, schedule: Q01DX005 (ip), vehicle: saline
# [8] = dose: 50.0 mg/kg/injection, schedule: Q01DX009 (ip), vehicle: saline with Tween-80
# [9] = dose: 100.0 mg/kg/injection, schedule: Q01DX009 (ip), vehicle: saline with Tween-80
# [10] = dose: 200.0 mg/kg/injection, schedule: Q01DX009 (ip), vehicle: saline with Tween-80
# [11] = dose: 100.0 mg/kg/injection, schedule: Q01DX005 (ip), vehicle: Klucel (hydroxypropylcellulose) (HPC)
# [12] = dose: 200.0 mg/kg/injection, schedule: Q01DX005 (ip), vehicle: Klucel (hydroxypropylcellulose) (HPC)
# [13] = dose: 25.0 mg/kg/injection, schedule: Q01DX009 (ip), vehicle: water
smiles,measurement,setting,value
COc1ccc([C@@H]2c3cc4c(cc3C[C@H]3COC(=O)[C@@H]32)OCO4)cc1OC,T/C,"dose: 50.0 mg/kg/injection, schedule: Q04DX002 (ip), vehicle: Klucel (hydroxypropylcellulose) (HPC)",126 % of control
same,T/C,"dose: 100.0 mg/kg/injection, schedule: Q04DX002 (ip), vehicle: Klucel (hydroxypropylcellulose) (HPC)",141 % of control
same,T/C,[1],144 % of control
same,survivor count,[1],5 of 6
same,survivor count,"dose: 400.0 mg/kg/injection, schedule: Q04DX002 (ip), vehicle: Klucel (hydroxypropylcellulose) (HPC)",2 of 6
Cc1c2cc[n+](C)cc2c(C)c2c1[nH]c1ccc(O)c(-[n+]3ccccc3)c12,T/C,"dose: 10.0 mg/kg/injection, schedule: Q04DX003 (ip), vehicle: saline",134 % of control
CC(C)=C(C#N)NC(C)(C)C,survivor count,"dose: 100.0 mg/kg/injection, schedule: Q01DX009 (ip), vehicle: saline",4 of 6
same,survivor count,"dose: 200.0 mg/kg/injection, schedule: Q01DX009 (ip), vehicle: saline",0 of 6
COc1cc(C2c3cc4c(cc3C(O)C(CO)C2CO)OCO4)cc(OC)c1OC (stereo not drawn),T/C,"dose: 16.5 mg/kg/injection, schedule: Q01DX009 (ip), vehicle: saline with Tween-80",136 % of control
same,T/C,[2],136 % of control
same,T/C,"dose: 50.0 mg/kg/injection, schedule: Q04DX003 (ip), vehicle: saline with Tween-80",140 % of control
same,T/C,"dose: 176.0 mg/kg/injection, schedule: Q04DX003 (ip), vehicle: saline with Tween-80",145 % of control
O=C1c2ccccc2C(=O)N1CCCN1CCOCCOCCN(CCCN2C(=O)c3ccccc3C2=O)CCOCC1,survivor count,"dose: 200.0 mg/kg/injection, schedule: Q01DX005 (ip), vehicle: saline + Tween-80 + alcohol",0 of 6
Nc1ccc2ccc3ccc(N)nc3c2n1,survivor count,[3],0 of 6
C[As](C)SCCC(CCCCC(=O)O)S[As](C)C (stereo not drawn),T/C,"dose: 25.0 mg/kg/injection, schedule: Q01DX009 (ip), vehicle: Klucel (hydroxypropylcellulose) (HPC)",128 % of control
same,T/C,[4],128 % of control
same,survivor count,[4],1 of 6
same,survivor count,[5],2 of 6
same,survivor count,"dose: 200.0 mg/kg/injection, schedule: Q01DX009 (ip), vehicle: Klucel (hydroxypropylcellulose) (HPC)",0 of 6
same,survivor count,[6],0 of 6
Nc1nc(F)nc2c1nnn2C1OC(CO)C(O)C1O (stereo not drawn),survivor count,[7],2 of 6
C=C(CN1CCOCC1)C(=O)c1ccccc1,survivor count,"dose: 15.0 mg/kg/injection, schedule: Q01DX005 (ip), vehicle: saline",0 of 6
same,survivor count,"dose: 30.0 mg/kg/injection, schedule: Q01DX005 (ip), vehicle: saline",0 of 6
Cc1ccc(N=Nc2ccc(N(CCCl)CCCl)cc2C)c(C(=O)O)c1,T/C,"dose: 6.25 mg/kg/injection, schedule: Q01DX009 (ip), vehicle: saline with Tween-80",132 and 142 % of control
same,T/C,[2],142 % of control
same,survivor count,[8],6 of 6
same,survivor count,[9],5 of 6
same,survivor count,[10],0 of 6
c1ccc2c(c1)[nH]c1c2nc2ccccn21,survivor count,[11],1 of 6 and 2 of 6
same,survivor count,[12],"0 of 6, 1 of 6, 1 of 4"
CC[C@]1(O)Cc2c(O)c3c(c(O)c2[C@@H](OC2CC(N)C(O)C(C)O2)C1)C(=O)c1c(OC)cccc1C3=O (stereo partly drawn),T/C,"dose: 0.39 mg/kg/injection, schedule: Q01DX009 (ip), vehicle: water",130 and 149 % of control
same,T/C,"dose: 0.78 mg/kg/injection, schedule: Q01DX009 (ip), vehicle: water",133 and 135 % of control
same,T/C,"dose: 4.7 mg/kg/injection, schedule: Q04DX003 (ip), vehicle: water",131 % of control
same,survivor count,"dose: 6.25 mg/kg/injection, schedule: Q01DX009 (ip), vehicle: water",6 of 6
same,T/C,"dose: 9.4 mg/kg/injection, schedule: Q04DX003 (ip), vehicle: water",132 % of control
same,survivor count,"dose: 12.5 mg/kg/injection, schedule: Q01DX009 (ip), vehicle: water",4 of 6
same,T/C,"dose: 18.8 mg/kg/injection, schedule: Q04DX003 (ip), vehicle: water",140 % of control
same,survivor count,[13],0 of 6
Nc1cc2c3c(cccc3c1O)CC2,survivor count,"dose: 50.0 mg/kg/injection, schedule: Q01DX005 (ip), vehicle: Klucel (hydroxypropylcellulose) (HPC)",2 of 5
same,survivor count,[11],0 of 5
same,survivor count,[12],0 of 5
Cc1cc(Cl)cc2c1OCOC2,survivor count,"dose: 200.0 mg/kg/injection, schedule: Q01DX009 (ip), vehicle: acetone",3 of 6
CC(C)N1C(Nc2ccccn2)C(C)(C)C(C)(C)C1Nc1ccccn1 (stereo not drawn),T/C,"dose: 60.0 mg/kg/injection, schedule: Q01DX005 (ip), vehicle: Klucel (hydroxypropylcellulose) (HPC)",126 and 134 % of control
same,T/C,"dose: 120.0 mg/kg/injection, schedule: Q01DX005 (ip), vehicle: Klucel (hydroxypropylcellulose) (HPC)",134 and 147 % of control
same,survivor count,"dose: 480.0 mg/kg/injection, schedule: Q01DX005 (ip), vehicle: Klucel (hydroxypropylcellulose) (HPC)",0 of 6
OC(Cc1cccnc1)(c1ccccc1)c1cccc2ccccc12 (stereo not drawn),survivor count,"dose: 400.0 mg/kg/injection, schedule: Q04DX003 (ip), vehicle: saline with Tween-80",5 of 6
CC1CC(c2ccccc2)(c2ccccc2)CN1C (stereo not drawn),survivor count,"dose: 100.0 mg/kg/injection, schedule: Q01DX005 (ip), vehicle: saline with Tween-80",3 of 5
same,survivor count,"dose: 200.0 mg/kg/injection, schedule: Q01DX005 (ip), vehicle: saline with Tween-80",0 of 5
Nc1n[n+](C2CCCCC2)no1,survivor count,[13],1 of 6
same,survivor count,"dose: 50.0 mg/kg/injection, schedule: Q01DX009 (ip), vehicle: water",0 of 6
same,survivor count,"dose: 100.0 mg/kg/injection, schedule: Q01DX009 (ip), vehicle: water",0 of 6
CCCCCCCCCCCCCCOCCS(=O)(=O)O,survivor count,"dose: 120.0 mg/kg/injection, schedule: Q01DX005 (ip), vehicle: saline with Tween-80",6 of 6
COc1ccc(OC)c(NCCCN2C(=O)c3ccccc3C2=O)c1,survivor count,[3],6 of 6
CC(=O)Oc1cccc2c1C(=O)c1c(OC(C)=O)cccc1C2=O,survivor count,[5],6 of 6
CN(C)c1ccc(N=C2C=CC(=O)C=C2)cc1,survivor count,[8],3 of 6
same,survivor count,[9],0 of 6
same,survivor count,[10],0 of 6
CC(=O)Nc1ccc(/C=N/NC(=O)CNC(=O)c2ccccc2)cc1,survivor count,[3],6 of 6
COC(=O)C1=C(C(=O)OC)C(C)(C)N=N1,T/C,"dose: 12.5 mg/kg/injection, schedule: Q01DX009 (ip), vehicle: other",125 % of control [4 of 6 alive]
same,survivor count,"dose: 50.0 mg/kg/injection, schedule: Q01DX009 (ip), vehicle: other",0 of 6
same,survivor count,"dose: 100.0 mg/kg/injection, schedule: Q01DX009 (ip), vehicle: other",0 of 6
same,survivor count,"dose: 200.0 mg/kg/injection, schedule: Q01DX009 (ip), vehicle: other",0 of 6
C=CCNc1ncnc2c1cnn2C,survivor count,[6],3 of 6
CCCCCCCCCCCCC1C(=O)NCCNCCCNCCNC1=O,survivor count,"dose: 100.0 mg/kg/injection, schedule: Q01DX005 (ip), vehicle: saline",6 of 6
same,survivor count,[7],2 of 6
Nc1ccc(N=N/C(=N\Nc2ccccc2[As](=O)(O)O)C(=O)Nc2ccccc2)c(Cl)c1,T/C,"dose: 12.5 mg/kg/injection, schedule: Q01DX005 (ip), vehicle: Klucel (hydroxypropylcellulose) (HPC)",125 % of control
same,survivor count,[11],1 of 6
same,survivor count,[12],0 of 6
